Assay results as given in patent US7183411B2, “Naphthol, quinoline and isoquinoline-derived urea modulators of vanilloid VR1 receptor” (Janssen Pharmaceutica N.V., priority 2002, dated 2007).
The match of structure and compound is tentative. Each block holds one molecule with its values, some of them ahead of it.

Amino acid sequences for entries named in this document (tags omitted).
UniProt Q8NER1, whole entry: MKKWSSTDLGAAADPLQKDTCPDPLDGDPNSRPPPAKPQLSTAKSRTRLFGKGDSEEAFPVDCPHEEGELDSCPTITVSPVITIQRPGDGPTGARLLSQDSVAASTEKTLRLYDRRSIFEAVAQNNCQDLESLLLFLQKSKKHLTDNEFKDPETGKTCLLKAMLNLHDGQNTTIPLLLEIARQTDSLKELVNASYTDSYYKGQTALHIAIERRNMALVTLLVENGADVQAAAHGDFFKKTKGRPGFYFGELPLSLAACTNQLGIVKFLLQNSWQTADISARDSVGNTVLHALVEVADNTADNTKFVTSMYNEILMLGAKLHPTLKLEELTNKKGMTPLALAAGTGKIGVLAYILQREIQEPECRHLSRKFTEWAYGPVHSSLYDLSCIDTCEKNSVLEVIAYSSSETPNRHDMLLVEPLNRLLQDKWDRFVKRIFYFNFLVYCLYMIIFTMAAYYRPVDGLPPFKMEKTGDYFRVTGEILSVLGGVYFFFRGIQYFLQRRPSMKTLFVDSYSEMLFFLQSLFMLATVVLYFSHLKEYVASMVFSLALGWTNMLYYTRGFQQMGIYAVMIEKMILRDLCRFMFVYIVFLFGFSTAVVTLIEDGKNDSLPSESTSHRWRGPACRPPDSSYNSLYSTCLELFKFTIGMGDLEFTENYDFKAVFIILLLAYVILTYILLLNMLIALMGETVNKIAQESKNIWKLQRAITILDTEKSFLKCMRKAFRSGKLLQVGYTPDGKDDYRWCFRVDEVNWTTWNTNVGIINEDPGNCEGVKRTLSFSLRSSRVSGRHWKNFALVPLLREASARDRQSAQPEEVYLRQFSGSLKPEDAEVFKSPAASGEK

Target: human VR1 vanilloid receptors (Homo sapiens, UniProt Q8NER1)
Experiment: [3H] RTX binding assay, hVR1 membranes from transfected HEK293 cells
Conditions: for Ki: read-out: Receptor binding Ki, human VR1; for Receptor binding % Inhibition @ 1 μM: human VR1, 1 μM compound

Structure (SMILES): CCCCCN(C)c1ccc(CNC(=O)Nc2cnc3ccccc3c2)cc1
- Ki: 211 nM

Structure (SMILES): O=C(Nc1cccc(C(F)(F)F)c1)Nc1cnc2ccccc2c1
- Receptor binding % Inhibition @ 1 μM: 1%

Next, values leading:

- Receptor binding % Inhibition @ 1 μM: 37%
Structure (SMILES): O=C(NCCc1ccc(Cl)c(Cl)c1)Nc1cnc2ccccc2c1

- Receptor binding % Inhibition @ 1 μM: 23%
Structure (SMILES): O=C(NCc1ccc(Cl)c(Cl)c1)Nc1cnc2ccccc2c1

- Ki: 786 nM
Structure (SMILES): O=C(NCc1ccc(C(F)(F)F)cc1)Nc1cnc2ccccc2c1
